Positions count from the first letter of the chain named. Numbers in names are those of the source. No constants are given. Whether binding was seen depends on the method and setting. Some entries that bind do so weakly or less than the wild type.
Target: T1, endogenous wild-type PLB of rat cardiac myocytes (rat) (UniProt P61016)
T1 sequence (looked up): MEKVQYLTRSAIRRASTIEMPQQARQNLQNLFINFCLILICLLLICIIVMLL
Assay: Western blot of infected myocytes, altered pentamer band pattern

B1: K3E/R14E double point mutation of PLB expressed from a recombinant adenovirus (other)
chain: T1 sequence (looked up) with K3E, R14E, N27K
notes: ID
- binding: binds

Source: patent US20040121942A1 (University of California, published 2004)
